Test results published in patent publication US20150337356A1 (FRIEDRICH ALEXANDER UNIVERSITAET ERLANGEN NUERNBERG, published 2015).

Chains of the proteins cited; added tags and fusions are not shown. Residues count along the entry.
UniProt P78536, 215-824 limits assumed: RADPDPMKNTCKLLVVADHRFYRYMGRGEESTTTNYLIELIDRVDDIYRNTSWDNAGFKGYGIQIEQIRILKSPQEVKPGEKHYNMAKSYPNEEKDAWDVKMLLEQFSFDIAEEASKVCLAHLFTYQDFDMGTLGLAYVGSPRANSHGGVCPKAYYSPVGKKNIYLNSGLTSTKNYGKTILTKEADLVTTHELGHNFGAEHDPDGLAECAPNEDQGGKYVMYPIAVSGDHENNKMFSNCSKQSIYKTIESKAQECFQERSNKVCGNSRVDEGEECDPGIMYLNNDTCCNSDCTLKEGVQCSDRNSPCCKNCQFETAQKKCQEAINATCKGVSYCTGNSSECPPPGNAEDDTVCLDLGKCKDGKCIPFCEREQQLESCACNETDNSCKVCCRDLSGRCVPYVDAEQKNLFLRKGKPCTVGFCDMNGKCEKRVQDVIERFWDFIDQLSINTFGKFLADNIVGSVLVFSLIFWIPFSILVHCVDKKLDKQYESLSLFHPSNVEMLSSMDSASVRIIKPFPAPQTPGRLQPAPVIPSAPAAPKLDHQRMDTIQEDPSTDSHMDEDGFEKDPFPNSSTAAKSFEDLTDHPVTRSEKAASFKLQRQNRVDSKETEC

Target: TNFα converting enzyme (TACE/ADAM17) (UniProt P78536 215-824, limits assumed)
Assay: co-immunoprecipitation, transfected 293T cells (FIG. 1F)
Protocol: Transfections into 293T cells and protein assays. Transient transfections into 293T cells as well as immunoprecipitations and immunoblots were performed as described previously (Baur et al., 1997; Witte et al., 2004; Wolf et al., 2008). In general 20 μg of cellular protein lysate and 10 μg of EV lysate were loaded per lane. The latter corresponded to the secretion from 2-4 mio 293T cells within 48 h. Endogenous TACE activity was measured using SensoLyte®520 TACE (α-Secretase) Activity Assay Kit from AnaSpec, according to the manufacturer's procedures. Cell lysates were generated from 293T cells 24 h after tranfection of Nef/mNAKC. Aliquots of transfected cells were treated with TAPI for 12 h prior to cell lysis.
To explore the significance of paxillin in this process, we expressed a paxillin mutant with a deletion of the LD4 protein domain (FIG. 3A) (Tumbarello et al., 2002). Remarkably, in cells transfected with this mutant no paxillin-TACE coimmunoprecipitation or proteolytic activation of TACE by the Nef/mNAKC complex was observed (FIG. 1F, black double arrows; controls Figure S2F). Furthermore, the LD4-mutant completely abrogated secretion of TACE via EV (FIG. 1F, red double arrow). […] Thus paxillin seemed a key factor in activation and secretion of TACE.

B1: paxillin LD4 deletion mutant (PaxΔLD4) (other, UniProt P49023-2 1-557, looked up)
chain: MDDLDALLADLESTTSHISKRPVFLSEETPYSYPTGNHTYQEIAVPPPVPPPPSSEALNGTILDPLDQWQPSSSRFIHQQPQSSSPVYGSSAKTSSVSNPQDSVGSPCSRVGEEEHVYSFPNKQKSAEPSPTVMSTSLGSNLSELDRLLLELNAVQHNPPGFPADEANSSPPLPGALSPLYGVPETNSPLGGKAGPLTKEKPKRNGGRGLEDVRPSVESLLDELESSVPSPVPAITVNQGEMSSPQRVTSTQQQTRISASSAKTGSSSPPGGPPKPGSQLDSMLGSLQSDLNKLGVATVAKGVCGACKKPIAGQVVTAMGKTWHPEHFVCTHCQEEIGSRNFFERDGQPYCEKDYHNLFSPRCYYCNGPILDKVVTALDRTWHPEHFFCAQCGAFFGPEGFHEKDGKAYCRKDYFDMFAPKCGGCARAILENYISALNTLWHPECFVCRECFTPFVNGSFFEHDGQPYCEVHYHERRGSLCSGCQKPITGRCITAMAKKFHPEHFVCAFCLKQLNKGTFKEQNDKPYCQNCFLKLFC
notes: also called paxillinΔLD4; LD4-mutant
**Q.** Does B1 bind?
**A.** no binding
